In publication PMC8034388:
Read-outs that look alike come from different tables or passages of the source. No constants are given. Whether binding was seen depends on the method and setting. In cells and extracts the contact can be indirect. Some entries that bind do so weakly or less than the wild type. For some of these results: Tags and fused reporters may be left off the sequences shown. Values belong to the molecule of their own block, whether it stands above or below them.

Protein sequences, listed by entry. Tags and fused reporters are not part of them.
UniProt Q15365: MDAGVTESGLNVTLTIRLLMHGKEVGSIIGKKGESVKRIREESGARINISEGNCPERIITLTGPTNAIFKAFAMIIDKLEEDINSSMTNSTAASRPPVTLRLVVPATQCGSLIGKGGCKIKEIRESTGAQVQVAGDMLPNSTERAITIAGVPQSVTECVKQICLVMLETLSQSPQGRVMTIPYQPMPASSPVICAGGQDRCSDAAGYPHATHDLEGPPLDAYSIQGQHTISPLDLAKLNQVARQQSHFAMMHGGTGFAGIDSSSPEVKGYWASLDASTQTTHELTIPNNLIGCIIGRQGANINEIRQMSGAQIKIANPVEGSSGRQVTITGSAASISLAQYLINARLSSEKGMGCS
UniProt O00327: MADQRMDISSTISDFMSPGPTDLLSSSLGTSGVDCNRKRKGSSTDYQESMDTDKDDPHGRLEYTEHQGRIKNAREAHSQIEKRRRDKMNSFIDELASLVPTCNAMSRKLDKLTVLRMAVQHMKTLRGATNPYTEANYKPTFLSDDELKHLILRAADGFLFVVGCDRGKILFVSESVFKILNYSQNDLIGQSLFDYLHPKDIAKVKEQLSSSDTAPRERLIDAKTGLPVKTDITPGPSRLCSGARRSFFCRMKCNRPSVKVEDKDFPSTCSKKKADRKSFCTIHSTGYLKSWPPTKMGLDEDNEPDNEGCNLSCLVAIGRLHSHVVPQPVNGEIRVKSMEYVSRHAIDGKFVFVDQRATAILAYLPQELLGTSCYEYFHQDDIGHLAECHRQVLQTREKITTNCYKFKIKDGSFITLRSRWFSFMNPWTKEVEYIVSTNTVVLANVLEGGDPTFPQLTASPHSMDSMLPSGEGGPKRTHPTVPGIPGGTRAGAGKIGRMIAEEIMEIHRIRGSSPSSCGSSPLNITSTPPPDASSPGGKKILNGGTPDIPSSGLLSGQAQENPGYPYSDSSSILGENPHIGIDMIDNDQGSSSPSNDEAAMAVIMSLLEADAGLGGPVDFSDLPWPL

Columns and labels:
[1] = biological target: PCBP1 with HA-tag (UniProt Q15365); experiment: co-IP; HEK293T lysates 24 h after transfection; lysis buffer 50 mM Tris-HCl pH 7.5, 150 mM NaCl, 1% NP-40; precipitated with HA or FLAG-agarose beads, washed three times, blotted with anti-Flag and anti-HA
[2] = biological target: PCBP1 with HA-tag (UniProt Q15365); experiment: as above; remark: listed apart in the source
[3] = biological target: poly(C)-binding protein 1 (PCBP1) fused to a luciferase fragment (UniProt Q15365); experiment: split reporter; luciferase complementation: N-terminal and C-terminal luciferase fragments fused to the two proteins, co-expressed in HEK293T cells, read 24 h after transfection with the Dual-Luciferase Reporter Assay System; CLOCK with CRY1 also tested with co-expressed BMAL1 or PCBP1 and in siBMAL1, siCRY1 or siPCBP1 cells

binding [3]: binds
B2: Cryptochrome 1 (CRY1) fused to a luciferase fragment (protein, UniProt Q16526 1-586)
chain: MGVNAVHWFRKGLRLHDNPALKECIQGADTIRCVYILDPWFAGSSNVGINRWRFLLQCLEDLDANLRKLNSRLFVIRGQPADVFPRLFKEWNITKLSIEYDSEPFGKERDAAIKKLATEAGVEVIVRISHTLYDLDKIIELNGGQPPLTYKRFQTLISKMEPLEIPVETITSEVIEKCTTPLSDDHDEKYGVPSLEELGFDTDGLSSAVWPGGETEALTRLERHLERKAWVANFERPRMNANSLLASPTGLSPYLRFGCLSCRLFYFKLTDLYKKVKKNSSPPLSLYGQLLWREFFYTAATNNPRFDKMEGNPICVQIPWDKNPEALAKWAEGRTGFPWIDAIMTQLRQEGWIHHLARHAVACFLTRGDLWISWEEGMKVFEELLLDADWSINAGSWMWLSCSSFFQQFFHCYCPVGFGRRTDPNGDYIRRYLPVLRGFPAKYIYDPWNAPEGIQKVAKCLIGVNYPKPMVNHAEASRLNIERMKQIYQQLSRYRGLGLLASVPSNPNGNGGFMGYSAENIPGCSSSGSCSQGSGILHYAHGDSQQTHLLKQGRSSMGTGLSGGKRPSQEEDTQSIGPKVQRQSTN

binding [2]: binds
B3: CRY1 with FLAG-tag (protein, UniProt Q16526 1-586)
chain: B2 chain

The next lines start with the molecule.

Molecule: BMAL1 with FLAG-tag (from UniProt O00327 1-626)
binding [1]: binds weakly

B1: CRY2 with FLAG-tag (protein, UniProt Q49AN0 1-593)
chain: MAATVATAAAVAPAPAPGTDSASSVHWFRKGLRLHDNPALLAAVRGARCVRCVYILDPWFAASSSVGINRWRFLLQSLEDLDTSLRKLNSRLFVVRGQPADVFPRLFKEWGVTRLTFEYDSEPFGKERDAAIMKMAKEAGVEVVTENSHTLYDLDRIIELNGQKPPLTYKRFQAIISRMELPKKPVGLVTSQQMESCRAEIQENHDETYGVPSLEELGFPTEGLGPAVWQGGETEALARLDKHLERKAWVANYERPRMNANSLLASPTGLSPYLRFGCLSCRLFYYRLWDLYKKVKRNSTPPLSLFGQLLWREFFYTAATNNPRFDRMEGNPICIQIPWDRNPEALAKWAEGKTGFPWIDAIMTQLRQEGWIHHLARHAVACFLTRGDLWVSWESGVRVFDELLLDADFSVNAGSWMWLSCSAFFQQFFHCYCPVGFGRRTDPSGDYIRRYLPKLKAFPSRYIYEPWNAPESIQKAAKCIIGVDYPRPIVNHAETSRLNIERMKQIYQQLSRYRGLCLLASVPSCVEDLSHPVAEPSSSQAGSMSSAGPRPLPSGPASPKRKLEAAEEPPGEELSKRARVAELPTPELPSKDA
binding [2]: binds
